# Measured values as given in PMC7819943, “Rice protein-binding microarrays: a tool to detect cis-acting elements near promoter regions in rice”.
# The list shows a part of the results.
# Molecular target: T1, OsSMF1 (Oryza sativa, UniProt Q6ZLB0 1-436)
# T1 sequence: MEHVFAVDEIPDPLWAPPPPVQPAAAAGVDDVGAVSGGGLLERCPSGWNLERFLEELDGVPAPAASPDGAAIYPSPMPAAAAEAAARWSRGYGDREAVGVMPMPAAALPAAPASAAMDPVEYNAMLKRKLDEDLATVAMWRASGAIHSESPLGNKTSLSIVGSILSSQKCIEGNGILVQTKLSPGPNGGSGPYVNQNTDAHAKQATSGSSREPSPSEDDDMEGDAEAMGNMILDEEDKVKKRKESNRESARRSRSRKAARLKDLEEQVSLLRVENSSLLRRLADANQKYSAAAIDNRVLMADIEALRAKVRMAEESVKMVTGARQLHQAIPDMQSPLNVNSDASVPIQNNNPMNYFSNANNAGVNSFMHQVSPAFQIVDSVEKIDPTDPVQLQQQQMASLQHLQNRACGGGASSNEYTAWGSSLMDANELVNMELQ
# Experiment: protein-binding microarray (RPBM); PBS, 2% BSA, 51.3 ng/ul salmon testes DNA, 50 uM zinc acetate, 200 nM TF, 25 C, 1 h; high values mean tight binding
# Details: protein: recombinant; tags: N-terminal polyhistidine and DsRed monomer fusion (pET32a); chain copies: 2; label: CyDye5-dUTP incorporated in the synthesized complementary strand; 3' TTTTT single-stranded linker to array surface; dsDNA, one strand shown
# Summary of the method: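 Transcription factors were made in E. coli BL21-CodonPlus as N-terminal fusions to a polyhistidine tag and DsRed, then purified on Ni–NTA. After primer extension with Cy5-dUTP and blocking with 2% BSA, a custom Agilent array was exposed for 1 h at 25 °C to 200 nM protein in PBS, 2% BSA, salmon testes DNA and 50 µM zinc acetate. Washed arrays were scanned on an Axon 4000B, and the binding signal is per-feature fluorescence intensity in arbitrary units.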
row,Sequence,binding signal
1,ATAGGTTTCAAATATTGACAATGTTACTAGCTTGTGGTCCCGGAGTCACCTAGTGCAG,4540 fluorescence intensity (a.u.)
2,GACCTTGCCAGGCACCACTGCCTAAGGATCCCGGTAACATCGGAGTCACCTAGTGCAG,25000 fluorescence intensity (a.u.)
3,TCTCGCTCAACGTGTTACGTGTGGTTTGTATAAACGCAGGCGGAGTCACCTAGTGCAG,4850 fluorescence intensity (a.u.)
4,CTGCGTTAGTTGTTGCGTCCCGCCTTGTCCGTCCTTGTCACGGAGTCACCTAGTGCAG,4160 fluorescence intensity (a.u.)
5,GATCAGAGATGAGGGCGGGCGGGTTGACTGGGAGAGTAGACGGAGTCACCTAGTGCAG,4160 fluorescence intensity (a.u.)
6,CAGAGGTTCCTTTGCCTAGAAAGCCAAGTCATTCACTACTCGGAGTCACCTAGTGCAG,3390 fluorescence intensity (a.u.)
7,TCTGATCGATGAGTATAAATTTATATACCTTGTTCGTTCGCGGAGTCACCTAGTGCAG,20500 fluorescence intensity (a.u.)
8,ACACCTCTCCCGTCGCAAGCCACCTCACCCTCACCTCGCCCGGAGTCACCTAGTGCAG,5030 fluorescence intensity (a.u.)
9,CGGGAGAAATGTGGATAAGAATAATAAGGTTGACAAATGCCGGAGTCACCTAGTGCAG,4080 fluorescence intensity (a.u.)
10,CTAATCGGCCTGTAATCCTTGAGCAGGATAGGCGATTCTGCGGAGTCACCTAGTGCAG,15100 fluorescence intensity (a.u.)
11,CCTTGAATCCCTTAGGTTTCGTCTACTTCGCCAGCATGGTCGGAGTCACCTAGTGCAG,4030 fluorescence intensity (a.u.)
12,AGGAGATAGAGGTAGAGAGGGTGAGGTGGAGGAAATTGAACGGAGTCACCTAGTGCAG,4160 fluorescence intensity (a.u.)
13,GTATCTTGACCGGCGGAGTCATCGTCAGCGGTCAGCTCCTCGGAGTCACCTAGTGCAG,5590 fluorescence intensity (a.u.)
14,CAGCCACTGGGAAGCGGTGTCATCGTCACCGCCGATGACCCGGAGTCACCTAGTGCAG,5120 fluorescence intensity (a.u.)
15,GCTAGGACTGAATGTGGATGTGACACGTTCTACATCCAAGCGGAGTCACCTAGTGCAG,5510 fluorescence intensity (a.u.)
16,TTGTCCTGCGTGGCGGCTTAGTCAGCATGGGACTCACGTGCGGAGTCACCTAGTGCAG,20100 fluorescence intensity (a.u.)
17,ACCTAATAACTCTACACTTTTATTACGTGACACTGCTTTTCGGAGTCACCTAGTGCAG,4180 fluorescence intensity (a.u.)
18,CGTCTCCTCGTCCTCATCCACGGCGAGTCCGCGTCATCCACGGAGTCACCTAGTGCAG,8280 fluorescence intensity (a.u.)
19,TATGAAATATGTAACAGATCATGACTTGGGTATTACGTTTCGGAGTCACCTAGTGCAG,3410 fluorescence intensity (a.u.)
20,CTCCTCTCCTCCACCTCACCTCACTCCCCACTACTTTCCCCGGAGTCACCTAGTGCAG,3820 fluorescence intensity (a.u.)
21,GAAAATGATTCATCTGCAAACTACCCTTGACTTGAAATGGCGGAGTCACCTAGTGCAG,3480 fluorescence intensity (a.u.)
22,TATGTGATAAAGTGATAGATCGAGAAAGTAAGCAGTAGGCCGGAGTCACCTAGTGCAG,3770 fluorescence intensity (a.u.)
23,TAATACCTTGAGTTATGTGTCACATGTCAAAATCCTTGTGCGGAGTCACCTAGTGCAG,5060 fluorescence intensity (a.u.)

# Reformatted with bars between the fields: entries from further up
row | Sequence | binding signal
17 | ACCTAATAACTCTACACTTTTATTACGTGACACTGCTTTTCGGAGTCACCTAGTGCAG | 4180 fluorescence intensity (a.u.)
18 | CGTCTCCTCGTCCTCATCCACGGCGAGTCCGCGTCATCCACGGAGTCACCTAGTGCAG | 8280 fluorescence intensity (a.u.)
